Test results from publication PMC4356366, “Structures of the human Pals1 PDZ domain with and without ligand suggest gated access of Crb to the PDZ peptide-binding groove” (Acta Crystallographica Section D: Biological Crystallography, 2015).
These are yes or no findings as the source states them, for the method shown. Some entries that bind do so weakly or less than the wild type.

By UniProt entry, the sequences of proteins in these tests, tags left out. Where a name states a change or a piece, a line headed by the entry shows the natural chain unless it says otherwise.
UniProt P82279: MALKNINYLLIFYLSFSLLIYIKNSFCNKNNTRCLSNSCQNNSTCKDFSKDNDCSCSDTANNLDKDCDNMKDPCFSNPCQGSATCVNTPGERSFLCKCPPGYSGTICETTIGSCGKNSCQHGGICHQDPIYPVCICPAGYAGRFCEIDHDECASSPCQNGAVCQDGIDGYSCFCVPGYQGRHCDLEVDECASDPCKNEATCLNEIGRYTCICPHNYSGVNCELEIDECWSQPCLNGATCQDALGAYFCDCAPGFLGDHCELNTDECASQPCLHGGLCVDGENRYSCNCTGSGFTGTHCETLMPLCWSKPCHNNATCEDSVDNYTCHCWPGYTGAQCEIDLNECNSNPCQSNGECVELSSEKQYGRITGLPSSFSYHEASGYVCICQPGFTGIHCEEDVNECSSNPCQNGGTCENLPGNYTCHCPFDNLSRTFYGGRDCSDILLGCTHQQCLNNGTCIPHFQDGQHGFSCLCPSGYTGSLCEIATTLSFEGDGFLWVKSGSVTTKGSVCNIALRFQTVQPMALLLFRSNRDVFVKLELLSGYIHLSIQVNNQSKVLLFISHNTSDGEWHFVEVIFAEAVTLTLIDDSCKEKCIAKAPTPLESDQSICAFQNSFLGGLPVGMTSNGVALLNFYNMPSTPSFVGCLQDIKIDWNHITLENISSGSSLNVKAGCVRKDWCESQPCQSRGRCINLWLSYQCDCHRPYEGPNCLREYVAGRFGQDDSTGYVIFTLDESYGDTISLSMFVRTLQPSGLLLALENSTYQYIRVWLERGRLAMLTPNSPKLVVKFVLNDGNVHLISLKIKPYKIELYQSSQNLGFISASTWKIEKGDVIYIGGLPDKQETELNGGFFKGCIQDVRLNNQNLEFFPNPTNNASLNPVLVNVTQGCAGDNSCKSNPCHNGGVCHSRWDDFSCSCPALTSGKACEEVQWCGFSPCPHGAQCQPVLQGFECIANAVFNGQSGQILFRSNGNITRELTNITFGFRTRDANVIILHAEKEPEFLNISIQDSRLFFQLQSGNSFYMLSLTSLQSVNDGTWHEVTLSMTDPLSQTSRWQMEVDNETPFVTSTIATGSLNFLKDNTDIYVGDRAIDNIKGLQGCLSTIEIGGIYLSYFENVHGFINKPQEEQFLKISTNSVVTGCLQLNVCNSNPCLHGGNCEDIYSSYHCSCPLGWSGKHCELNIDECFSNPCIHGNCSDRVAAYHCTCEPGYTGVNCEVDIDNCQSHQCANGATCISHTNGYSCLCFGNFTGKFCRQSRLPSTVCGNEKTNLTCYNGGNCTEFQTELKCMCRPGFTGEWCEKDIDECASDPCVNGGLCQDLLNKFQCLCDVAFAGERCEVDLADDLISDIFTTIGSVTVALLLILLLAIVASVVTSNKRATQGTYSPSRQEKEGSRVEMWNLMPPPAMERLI

How the values were obtained:
[1] = target: T1, human Crumbs peptide (homologue 1; residues 1390-1406), Crb^17, as used for crystallization (human); experiment: SEC; complex followed by the intrinsic tryptophan fluorescence of Crb^17; data not shown; both purified
T1 sequence (peptide): RVEMWNLMPPPAMERLI

[2] = target: T1, human Crumbs peptide (homologue 1; residues 1390-1406), Crb^17, as used for crystallization (human); experiment: crystal structure; Pals1^PDZ incubated with a two-molar excess of Crb^17 for 30 min on ice; crystals at 20°C in 0.1 M HEPES pH 7.29, 2.68 M NaCl; 1.23 Å; both purified
[3] = target: T2, fluorescein-labelled Crb^17 I1406A (human) (UniProt P82279); experiment: condition: protein concentration ranging from 0 to 300 µM; fluorescence polarisation; fixed fluorescein-labelled peptide (50 nM), Pals1 PDZ protein titrated 0 to 300 µM; 20 mM HEPES pH 7.5, 100 mM NaCl, 1 mM DTT; 20 µl in 384-well plate, read after 5 min; both purified
T2 sequence (peptide, fluorescein-labelled (position not stated)): RVEMWNLMPPPAMERLA

B1: human Pals1 PDZ domain (Pals1^PDZ; residues 251-335), wild type (domain or fragment, UniProt Q8N3R9 251-335)
chain: GPLGSGETVKIVRIEKARDIPLGATVRNEMDSVIISRIVKGGAAEKSGLLHEGDEVLEINGIEIRGKDVNEVFDLLSDMHGTLTFVLIPS
- binding [1]: binds
- binding [2]: binds
- binding [3]: no binding
